# Laboratory results: publication PMC3778752
# The chains behind the UniProt entries cited, without tags or fusion partners. Residues count along the entry.
# UniProt Q9UH99, residues 1-138: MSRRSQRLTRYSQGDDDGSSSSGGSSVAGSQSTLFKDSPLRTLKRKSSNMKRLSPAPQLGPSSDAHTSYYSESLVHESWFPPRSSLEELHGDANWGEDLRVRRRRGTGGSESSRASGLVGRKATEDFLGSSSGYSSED
# UniProt P53618: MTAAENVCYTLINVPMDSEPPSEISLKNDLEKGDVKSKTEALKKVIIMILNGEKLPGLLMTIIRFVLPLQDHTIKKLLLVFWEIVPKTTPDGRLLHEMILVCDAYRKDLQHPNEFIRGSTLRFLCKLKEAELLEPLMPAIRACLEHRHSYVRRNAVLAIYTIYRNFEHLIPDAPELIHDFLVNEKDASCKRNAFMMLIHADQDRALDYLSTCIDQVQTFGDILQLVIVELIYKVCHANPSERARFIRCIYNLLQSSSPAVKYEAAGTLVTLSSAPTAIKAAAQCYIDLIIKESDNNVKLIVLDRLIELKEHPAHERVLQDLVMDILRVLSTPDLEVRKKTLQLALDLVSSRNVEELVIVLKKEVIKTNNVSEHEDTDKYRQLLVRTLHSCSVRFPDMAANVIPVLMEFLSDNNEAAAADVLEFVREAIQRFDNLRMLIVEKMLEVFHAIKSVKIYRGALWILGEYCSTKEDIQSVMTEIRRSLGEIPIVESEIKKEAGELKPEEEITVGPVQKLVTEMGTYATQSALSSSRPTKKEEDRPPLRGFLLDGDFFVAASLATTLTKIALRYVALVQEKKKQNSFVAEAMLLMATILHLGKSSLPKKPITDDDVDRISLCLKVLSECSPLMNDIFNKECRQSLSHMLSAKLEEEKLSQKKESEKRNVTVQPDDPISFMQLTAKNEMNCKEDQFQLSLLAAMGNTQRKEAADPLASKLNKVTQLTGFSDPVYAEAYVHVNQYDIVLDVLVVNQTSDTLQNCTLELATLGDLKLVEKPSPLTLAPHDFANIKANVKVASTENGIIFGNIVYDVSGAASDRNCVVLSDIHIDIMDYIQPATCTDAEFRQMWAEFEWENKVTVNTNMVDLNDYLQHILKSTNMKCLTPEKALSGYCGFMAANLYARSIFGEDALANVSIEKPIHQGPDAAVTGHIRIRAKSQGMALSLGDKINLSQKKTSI
# UniProt Q9ULV4: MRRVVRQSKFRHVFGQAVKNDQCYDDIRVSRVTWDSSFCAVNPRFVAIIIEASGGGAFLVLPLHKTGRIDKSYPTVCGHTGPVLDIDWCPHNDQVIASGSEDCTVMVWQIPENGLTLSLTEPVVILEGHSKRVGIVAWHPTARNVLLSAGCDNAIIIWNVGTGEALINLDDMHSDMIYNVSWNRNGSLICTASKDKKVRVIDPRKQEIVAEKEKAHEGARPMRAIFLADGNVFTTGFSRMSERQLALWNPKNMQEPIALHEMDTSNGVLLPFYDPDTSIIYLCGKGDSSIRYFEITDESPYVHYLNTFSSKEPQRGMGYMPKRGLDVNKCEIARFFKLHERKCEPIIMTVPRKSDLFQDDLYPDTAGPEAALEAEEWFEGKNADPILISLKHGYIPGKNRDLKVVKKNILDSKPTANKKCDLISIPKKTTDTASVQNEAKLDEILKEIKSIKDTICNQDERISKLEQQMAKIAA
# UniProt P68104: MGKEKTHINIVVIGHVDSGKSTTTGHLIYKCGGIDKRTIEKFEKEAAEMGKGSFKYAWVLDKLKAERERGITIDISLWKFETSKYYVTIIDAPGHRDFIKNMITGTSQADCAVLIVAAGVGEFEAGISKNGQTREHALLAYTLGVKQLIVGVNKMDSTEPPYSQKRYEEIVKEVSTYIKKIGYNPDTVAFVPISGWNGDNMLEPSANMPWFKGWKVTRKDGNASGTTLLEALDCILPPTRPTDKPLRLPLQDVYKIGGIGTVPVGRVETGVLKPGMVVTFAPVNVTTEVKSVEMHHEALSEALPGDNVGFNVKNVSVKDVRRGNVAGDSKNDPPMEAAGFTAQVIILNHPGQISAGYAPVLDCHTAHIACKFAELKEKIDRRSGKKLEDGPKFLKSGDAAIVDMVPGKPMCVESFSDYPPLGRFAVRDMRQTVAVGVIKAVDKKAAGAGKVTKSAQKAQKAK
# UniProt P31943: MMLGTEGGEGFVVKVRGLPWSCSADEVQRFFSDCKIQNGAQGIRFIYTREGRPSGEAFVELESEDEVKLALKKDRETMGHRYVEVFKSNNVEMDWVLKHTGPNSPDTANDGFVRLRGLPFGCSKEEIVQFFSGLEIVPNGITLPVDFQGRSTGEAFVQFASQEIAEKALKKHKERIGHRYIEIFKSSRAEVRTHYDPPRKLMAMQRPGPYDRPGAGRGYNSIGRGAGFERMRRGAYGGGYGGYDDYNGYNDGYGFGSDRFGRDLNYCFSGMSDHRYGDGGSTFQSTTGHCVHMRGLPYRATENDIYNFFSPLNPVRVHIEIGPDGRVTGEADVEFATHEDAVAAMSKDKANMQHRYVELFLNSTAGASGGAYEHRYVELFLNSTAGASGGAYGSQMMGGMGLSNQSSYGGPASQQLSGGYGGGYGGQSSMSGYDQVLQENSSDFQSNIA
# UniProt Q9UHB6: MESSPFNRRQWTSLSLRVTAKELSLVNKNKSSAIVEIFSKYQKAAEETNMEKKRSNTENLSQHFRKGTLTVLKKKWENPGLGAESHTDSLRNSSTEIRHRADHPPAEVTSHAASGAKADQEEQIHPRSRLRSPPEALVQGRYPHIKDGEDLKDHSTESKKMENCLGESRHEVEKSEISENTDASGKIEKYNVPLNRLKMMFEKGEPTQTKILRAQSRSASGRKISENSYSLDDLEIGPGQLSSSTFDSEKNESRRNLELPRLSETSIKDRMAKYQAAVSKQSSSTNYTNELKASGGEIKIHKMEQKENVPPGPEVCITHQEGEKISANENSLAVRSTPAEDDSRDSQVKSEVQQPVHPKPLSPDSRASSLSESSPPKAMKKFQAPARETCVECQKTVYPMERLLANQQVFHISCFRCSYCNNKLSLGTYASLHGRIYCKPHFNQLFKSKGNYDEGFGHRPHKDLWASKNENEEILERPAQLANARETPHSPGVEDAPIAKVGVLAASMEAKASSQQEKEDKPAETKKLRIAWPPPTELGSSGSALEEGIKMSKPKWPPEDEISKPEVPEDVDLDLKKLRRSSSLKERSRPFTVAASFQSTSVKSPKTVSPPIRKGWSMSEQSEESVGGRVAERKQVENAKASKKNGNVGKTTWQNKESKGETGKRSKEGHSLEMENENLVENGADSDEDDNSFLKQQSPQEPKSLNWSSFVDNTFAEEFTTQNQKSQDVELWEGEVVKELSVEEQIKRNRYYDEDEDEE
# UniProt P22314: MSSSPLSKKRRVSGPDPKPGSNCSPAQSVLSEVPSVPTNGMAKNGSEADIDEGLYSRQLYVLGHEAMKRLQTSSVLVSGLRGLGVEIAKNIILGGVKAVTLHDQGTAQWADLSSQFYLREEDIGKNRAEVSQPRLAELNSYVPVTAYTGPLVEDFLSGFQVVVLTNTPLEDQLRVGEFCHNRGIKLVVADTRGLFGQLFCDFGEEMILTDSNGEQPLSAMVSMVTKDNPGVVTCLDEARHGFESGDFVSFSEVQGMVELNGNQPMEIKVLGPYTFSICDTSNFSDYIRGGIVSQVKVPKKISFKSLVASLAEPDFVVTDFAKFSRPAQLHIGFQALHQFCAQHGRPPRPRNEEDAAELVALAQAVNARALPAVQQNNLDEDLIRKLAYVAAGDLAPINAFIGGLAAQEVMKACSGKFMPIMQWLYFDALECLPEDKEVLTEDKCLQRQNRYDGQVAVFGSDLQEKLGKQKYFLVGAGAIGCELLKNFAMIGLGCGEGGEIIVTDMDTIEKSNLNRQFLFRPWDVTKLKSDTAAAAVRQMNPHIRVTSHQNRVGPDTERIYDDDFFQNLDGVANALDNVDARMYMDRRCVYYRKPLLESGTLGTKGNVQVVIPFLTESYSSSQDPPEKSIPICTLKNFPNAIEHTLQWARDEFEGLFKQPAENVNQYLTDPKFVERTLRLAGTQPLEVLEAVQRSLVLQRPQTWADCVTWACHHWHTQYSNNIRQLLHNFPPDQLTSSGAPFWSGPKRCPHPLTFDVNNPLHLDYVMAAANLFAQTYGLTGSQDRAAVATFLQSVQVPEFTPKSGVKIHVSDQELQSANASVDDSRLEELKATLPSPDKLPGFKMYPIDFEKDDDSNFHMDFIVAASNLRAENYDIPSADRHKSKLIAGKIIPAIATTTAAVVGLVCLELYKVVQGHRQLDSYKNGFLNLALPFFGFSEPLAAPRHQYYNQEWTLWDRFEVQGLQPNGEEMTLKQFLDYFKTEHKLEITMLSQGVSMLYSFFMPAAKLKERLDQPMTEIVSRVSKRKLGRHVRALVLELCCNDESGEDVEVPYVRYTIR
# UniProt P60842: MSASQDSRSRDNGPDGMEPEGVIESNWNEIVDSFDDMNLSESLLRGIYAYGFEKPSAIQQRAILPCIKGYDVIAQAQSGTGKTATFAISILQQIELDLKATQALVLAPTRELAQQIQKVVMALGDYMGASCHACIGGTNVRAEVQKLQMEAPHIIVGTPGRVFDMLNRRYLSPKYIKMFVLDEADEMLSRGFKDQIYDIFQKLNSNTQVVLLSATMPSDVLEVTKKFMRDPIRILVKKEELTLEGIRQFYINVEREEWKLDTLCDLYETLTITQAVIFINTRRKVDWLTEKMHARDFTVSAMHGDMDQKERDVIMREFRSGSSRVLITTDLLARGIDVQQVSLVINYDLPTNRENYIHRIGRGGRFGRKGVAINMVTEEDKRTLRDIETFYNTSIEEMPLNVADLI
# UniProt O00571: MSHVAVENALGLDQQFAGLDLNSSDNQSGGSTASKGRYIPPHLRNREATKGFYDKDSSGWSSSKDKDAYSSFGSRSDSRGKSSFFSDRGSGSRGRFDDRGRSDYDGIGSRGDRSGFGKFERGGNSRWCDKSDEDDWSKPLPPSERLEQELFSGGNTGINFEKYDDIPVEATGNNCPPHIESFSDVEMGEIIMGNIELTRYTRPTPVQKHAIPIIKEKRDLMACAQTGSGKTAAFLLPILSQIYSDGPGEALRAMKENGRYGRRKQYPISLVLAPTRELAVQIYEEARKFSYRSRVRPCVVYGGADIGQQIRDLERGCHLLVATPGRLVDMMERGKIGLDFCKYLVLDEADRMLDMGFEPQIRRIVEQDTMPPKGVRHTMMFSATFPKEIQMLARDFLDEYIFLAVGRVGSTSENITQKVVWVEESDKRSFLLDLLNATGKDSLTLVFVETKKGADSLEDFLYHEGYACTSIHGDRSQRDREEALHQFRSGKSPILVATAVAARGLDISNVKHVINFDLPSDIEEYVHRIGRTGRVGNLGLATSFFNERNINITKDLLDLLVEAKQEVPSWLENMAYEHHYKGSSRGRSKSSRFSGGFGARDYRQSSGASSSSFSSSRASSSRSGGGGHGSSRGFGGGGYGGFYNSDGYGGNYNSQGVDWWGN
# These are yes or no findings as the source states them, for the method shown. Binding seen in cells or lysates may run through a third protein. These calls come from enrichment with a bait or labelling near it, and not all partners need be listed.
# B1: EIF1AD (protein, UniProt Q8N9N8 1-165)
# chain: MSQATKRKHVVKEVLGEHIVPSDQQQIVRVLRTPGNNLHEVETAQGQRFLVSMPSKYRKNIWIKRGDFLIVDPIEEGEKVKAEISFVLCKDHVRSLQKEGFWPEAFSEVAEKHNNRNRQTQPELPAEPQLSGEESSSEDDSDLFVNTNRRQYHESEEESEEEEAA
# B2: coiled coil domain containing protein 87 (CCDC87) (protein, UniProt Q9NVE4 1-849)
# chain: MMEPPKPEPELQRFYHRLLRPLSLFPTRTTSPEPQKRPPQEGRILQSFPLAKLTVASLCSQVAKLLAGSGIAAGVPPEARLRLIKVILDELKCSWREPPAELSLSHKNNQKLRKRLEAYVLLSSEQLFLRYLHLLVTMSTPRGVFTESATLTRLAASLARDCTLFLTSPNVYRGLLADFQALLRAEQASGDVDKLHPVCPAGTFKLCPIPWPHSTGFAQVQCSNLNLNYLIQLSRPPEFLNEPGRMDPVKELKSIPRLKRKKPFHWLPSIGKKREIDISSSQMVSLPSYPVAPTSRASPSPFCPELRRGQSMPSLREGWRLADELGLPPLPSRPLTPLVLATESKPELTGLIVAEDLKQLIKKMKLEGTRYPPLDSGLPPLLGVVTRHPAAGHRLEELEKMLRNLQEEEASGQWDPQPPKSFPLHPQPVTITLKLRNEVVVQAAAVRVSDRNFLDSFHIEGAGALYNHLAGELDPKAIEKMDIDNFVGSTTREVYKELMSHVSSDHLHFDQGPLVEPAADKDWSTFLSSAFLRQEKQPQIINPELVGLYSQRANTLQSNTKKMPSLPSLQATKSWEKWSNKASLMNSWKTTLSVDDYFKYLTNHETDFLHVIFQMHEEEVPVEIVAPARESLEIQHPPPLLEDEEPDFVPGEWDWNTVLEHRLGAGKTPHLGEPHKILSLQKHLEQLWSVLEVPDKDQVDMTIKYSSKARLRQLPSLVNAWERALKPIQLREALLARLEWFEGQASNPNRFFKKTNLSSSHFLEENQVRSHLHRKLNLMESSLVSLLEEIELIFGEPVIFKGRPYLDKMKSDKVEMLYWLQQQRRVRHLVSALKDPHQSTLFRSSAASL
# Target: GST-SUN2Nt (human) (UniProt Q9UH99)
# Assay: affinity purification with mass spectrometry; GST-SUN2Nt on glutathione agarose beads incubated with total cell lysates (100,000 g supernatant) of control or EDMD/CMT human fibroblasts, 4 °C, 6 h; washed with PBS; 12% SDS-PAGE, Coomassie bands excised, LC-MS; done twice; only the target purified
row,binding,Molecule
1,binds,Coatomer β (from UniProt P53618 1-953)
2,binds,Coronin1C (from UniProt Q9ULV4 1-474)
3,binds,EF1A1 (from UniProt P68104 1-462)
4,binds,HNRNPH1 (from UniProt P31943 1-449)
5,binds,LIMA1 (from UniProt Q9UHB6 1-759)
6,binds,Myosin9 (from UniProt P35579 1-1960)
7,binds,Ubiquitin-like modifier-activating enzyme (from UniProt P22314 1-1058)
8,binds,eIF4A-1 (from UniProt P60842 1-406)
9,binds,mRNA helicase 3X (from UniProt O00571 1-662)
10,binds,titin (from UniProt Q8WZ42 1-34350)
11,binds,B1
12,binds,B2
